Assay: general procedure: Boc solid-phase peptide synthesis; benzhydrylamine (BHA) resin; Boc-Pro-Merrifield resin; DCC/HBT; DCC/DMAP for Pmp(MeBzl)
Details: whole synthesis, scale 0.5 mmol, one disulfide bridge, sequence written open

**Q.** For “Pmp(MeBzl)-D-Tyr(Et)-Phe-Val-Asn-D-Cys(MeBzl)-MeArg(Tos)-Arg(Tos)-BHA”, which crude mass is on record?
**A.** 137 mg

— patent publication EP0346068A2 (SMITHKLINE BECKMAN CORPORATION, priority 1988, dated 1989)
